Measurements reported in PubChem BioAssay AID743121 (NCATS, 2013).
The whole screen tested about 26,000 reagents; below is an unselected part. 167 of them (0.63%) were called active. 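Calls are per gene from RSA p-values that are not deposited; an individual active-marked siRNA can sensitise only weakly.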 The numbers tell different reagents against one gene apart.

Test: 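Knock-downs that sensitise breast cancer cells to camptothecin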 (primary screen)
Cell system: MDA-MB-231 cells, a human breast cancer line
Knock-down reagent: single siRNA against human genes, 20 nM siRNA (0.8 pmol per well)
Timing: 120 h (drug added 48 h after transfection, read 72 h later)
Treatment: camptothecin 20 nM (about EC30) for 72 h; vehicle 0.1% DMSO in parallel plates
Read-out: 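CellTiter-Glo ATP signal, scaled to control siRNA as percent viability; sensitisation given as log2 of untreated divided by camptothecin-treated viability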
Scale: log2 vehicle/camptothecin viability: higher = stronger sensitisation to camptothecin; viability with camptothecin and viability without drug: higher = more viable cells
Rule for the call: 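Each gene scored by redundant siRNA activity (RSA) over its individual siRNA ratios; a gene is called active at p < 0.001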

gene knocked down	reagent no.	log2 vehicle/camptothecin viability	viability with camptothecin (% of control)	viability without drug (% of control)	outcome
GCGR (glucagon receptor)	1	-0.389	61.5	47	inactive
GCGR (glucagon receptor)	2	-0.334	71.8	56.9	inactive
GCGR (glucagon receptor)	3	-0.209	93.9	81.3	inactive
GCGR (glucagon receptor)	4	-0.436	105	77.4	inactive
PLA2G1B (phospholipase A2 group IB)	1	-0.053	73.8	71.1	inactive
PLA2G1B (phospholipase A2 group IB)	2	-0.0239	106	104	inactive
PLA2G1B (phospholipase A2 group IB)	3	-0.242	82.6	69.9	inactive
PLA2G1B (phospholipase A2 group IB)	4	0.157	65.9	73.5	inactive
KCNH2 (potassium voltage-gated channel subfamily H member 2)	1	0.00705	81	81.4	inactive
KCNH2 (potassium voltage-gated channel subfamily H member 2)	2	-0.118	71.9	66.2	inactive
KCNH2 (potassium voltage-gated channel subfamily H member 2)	3	-0.0207	59.1	58.3	inactive
KCNH2 (potassium voltage-gated channel subfamily H member 2)	4	-0.215	87.5	75.4	inactive
ERAP2 (endoplasmic reticulum aminopeptidase 2)	1	0.742	31.9	53.4	inactive
ERAP2 (endoplasmic reticulum aminopeptidase 2)	2	-0.403	86.8	65.6	inactive
ERAP2 (endoplasmic reticulum aminopeptidase 2)	3	-0.0478	91.2	88.2	inactive
ERAP2 (endoplasmic reticulum aminopeptidase 2)	4	-0.461	78.2	56.8	inactive
TLK1 (tousled like kinase 1)	1	-0.197	101	88.4	inactive
TLK1 (tousled like kinase 1)	2	0.165	76.8	86	inactive
TLK1 (tousled like kinase 1)	3	-0.24	110	93.5	inactive
TLK1 (tousled like kinase 1)	4	0.00318	87.7	87.8	inactive
SLC22A17	1	-0.117	107	99	inactive
SLC22A17	2	-0.0359	63	61.4	inactive
SLC22A17	3	-0.0596	87.9	84.3	inactive
SLC22A17	4	-0.329	103	81.8	inactive
MMP1 (matrix metallopeptidase 1)	1	-0.128	90.4	82.7	inactive
MMP1 (matrix metallopeptidase 1)	2	-0.231	84.9	72.3	inactive
MMP1 (matrix metallopeptidase 1)	3	-0.301	83.8	68	inactive
MMP1 (matrix metallopeptidase 1)	4	0.0986	76.2	81.6	inactive
KLK6 (kallikrein related peptidase 6)	1	-0.131	93.2	85.1	inactive
KLK6 (kallikrein related peptidase 6)	2	-0.234	101	86.1	inactive
KLK6 (kallikrein related peptidase 6)	3	-0.336	72.3	57.3	inactive
GHRL (ghrelin and obestatin prepropeptide)	1	0.157	37.6	41.9	inactive
GHRL (ghrelin and obestatin prepropeptide)	2	-0.411	100	75.2	inactive
GHRL (ghrelin and obestatin prepropeptide)	3	-0.556	23	15.7	inactive
GHRL (ghrelin and obestatin prepropeptide)	4	-0.618	74.4	48.5	inactive
GPD2 (glycerol-3-phosphate dehydrogenase 2)	1	-0.0154	90.8	89.9	inactive
GPD2 (glycerol-3-phosphate dehydrogenase 2)	2	-0.327	32	25.5	inactive
GPD2 (glycerol-3-phosphate dehydrogenase 2)	3	0.0318	67.9	69.4	inactive
GPD2 (glycerol-3-phosphate dehydrogenase 2)	4	-0.0771	113	107	inactive
PHF8 (PHD finger protein 8)	1	-0.314	62.6	50.4	inactive
PHF8 (PHD finger protein 8)	2	-0.705	91.2	56	inactive
PHF8 (PHD finger protein 8)	3	-0.0846	60.8	57.4	inactive
PTK2 (protein tyrosine kinase 2)	1	-0.289	88.3	72.3	inactive
PTK2 (protein tyrosine kinase 2)	2	-0.349	85.4	67.1	inactive
PTK2 (protein tyrosine kinase 2)	3	-0.317	84.5	67.8	inactive
PTK2 (protein tyrosine kinase 2)	4	0.429	37.5	50.6	inactive

2 consecutive records already listed, for reference:
gene knocked down	reagent no.	log2 vehicle/camptothecin viability	viability with camptothecin (% of control)	viability without drug (% of control)	outcome
SLC22A17	3	-0.0596	87.9	84.3	inactive
SLC22A17	4	-0.329	103	81.8	inactive
